Among all 320,000 compounds or so, about 620 (0.19%) were called active. This list was built around the results that the source calls inconclusive (neither active nor inactive); the mix of calls is not that of the screen. Rule as the data show it: active = activation above about 80%; inconclusive = between about 30% and that limit; inactive = weaker than that.
target: Transient receptor potential cation channel subfamily V member 1 (Homo sapiens) (UniProt Q8NER1); assay: HTS Assay for Compounds that Act as Agonists of the Vanilloid Receptor 1; conditions: TRPV1-expressing cells, Fluo-8 calcium influx, agonist mode; at 8.33 µM, hits give high values; also: 0% is about no effect
Procedure, shortened: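 Fluo-8 calcium influx in TRPV1-expressing cells, kinetic read (ex 480/em 520 nm). Compound added and read 3 min for agonist activity, followed by capsaicin at EC20 final and 2 min further read for enhancement.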

Protein sequences, listed by entry. Tags and fused reporters are not part of them.
UniProt Q8NER1, whole entry, looked up: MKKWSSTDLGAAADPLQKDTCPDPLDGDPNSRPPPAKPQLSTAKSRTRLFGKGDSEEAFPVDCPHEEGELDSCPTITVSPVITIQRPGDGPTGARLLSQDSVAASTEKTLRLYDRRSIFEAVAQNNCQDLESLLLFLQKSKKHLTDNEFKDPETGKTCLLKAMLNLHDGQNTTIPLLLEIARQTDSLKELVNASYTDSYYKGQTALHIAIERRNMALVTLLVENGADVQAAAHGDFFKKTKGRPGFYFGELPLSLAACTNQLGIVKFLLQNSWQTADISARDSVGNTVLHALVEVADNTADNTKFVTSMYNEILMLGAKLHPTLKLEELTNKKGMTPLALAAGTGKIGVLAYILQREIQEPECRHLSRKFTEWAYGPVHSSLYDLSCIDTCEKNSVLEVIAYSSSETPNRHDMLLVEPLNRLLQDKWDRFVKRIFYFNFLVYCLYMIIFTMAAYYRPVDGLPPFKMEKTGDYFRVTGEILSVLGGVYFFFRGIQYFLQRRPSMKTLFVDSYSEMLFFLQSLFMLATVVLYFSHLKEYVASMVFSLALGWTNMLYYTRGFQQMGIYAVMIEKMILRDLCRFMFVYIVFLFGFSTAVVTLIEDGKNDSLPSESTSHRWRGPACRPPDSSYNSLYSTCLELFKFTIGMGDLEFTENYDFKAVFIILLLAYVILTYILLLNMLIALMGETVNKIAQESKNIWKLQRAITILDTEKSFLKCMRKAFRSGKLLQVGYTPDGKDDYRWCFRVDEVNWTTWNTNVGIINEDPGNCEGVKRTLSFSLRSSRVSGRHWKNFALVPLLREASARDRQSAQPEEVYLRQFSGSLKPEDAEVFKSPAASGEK

SMILES	activation
Cc1ccc(C(=O)NC(=S)N(C)C2CCCCC2)cc1Br	inconclusive: 47.2%
CCOC(=O)CNC(=S)N(Cc1ccccc1F)C1CCCCC1	inactive: 8.85%
Cc1c2c(nc3c(C(=O)NC4CCCCC4C)cnn13)CCCC2 (stereo not given)	inconclusive: 35.6%
S=C(NCCCc1ccccc1)Nc1ccccc1Cl	inconclusive: 37%
CN(CC(=O)NCc1ccc(F)cc1)Cc1ccc(Br)cc1	inconclusive: 57.1%
CC(C)CC(=O)Nc1ccccc1N1CCN(c2ccccc2)CC1	inconclusive: 33.1%
Cc1cc(C)c(S(=O)(=O)N2CCC(C(=O)NCc3ccncc3)CC2)c(C)c1	inconclusive: 61.3%
CC1Cc2cc(S(=O)(=O)CCC(=O)N3CCN(c4ccccc4)CC3)ccc2N1C(=O)C1CC1 (stereo not given)	inactive: -0.724%
O=Cc1cn(-c2ccccc2)nc1-c1ccccc1	inconclusive: 37%
Cc1ccc(N(Cc2ccccc2)C(=O)c2cc(S(=O)(=O)N3CCOCC3)ccc2Cl)cc1	inconclusive: 31.8%
Cc1ccc(N(C(=O)Cc2cccs2)C(C(=O)NC2CCCCC2)c2ccccn2)cc1C (stereo not given)	inconclusive: 52.2%
COc1ccc(N2CCN(CCCNC(=O)CCC(=O)N3CCOc4ccc(Cl)cc43)CC2)cc1	inactive: -1.55%
Fc1ccccc1NC(=S)NCc1ccc(Cl)cc1	inconclusive: 34.2%
COC(=O)c1cc2ccccc2c(-c2c(OC)c(C(=O)OC)cc3ccccc23)c1OC	inconclusive: 34.5%
C=CCN(c1ccccc1)S(=O)(=O)c1cccc(C(=O)N2CC(C)CC(C)C2)c1 (stereo not given)	inconclusive: 44.7%
C/C(N)=C(/C#N)C(=O)COC(=O)c1oc2ccccc2c1COC(C)C	inconclusive: 42.4%
Cc1ccc(/C=N/NC(=O)Cc2c[nH]c3ccccc23)c(C)c1	inconclusive: 32.2%
O=C(CSc1nc2cccnc2n1Cc1ccccc1)NC1CCCCC1	inconclusive: 40.2%
O=C(CCN1C(=O)S/C(=C\c2ccccc2)C1=O)N1CCCCC1	inconclusive: 49.1%
Cc1noc2ncnc(Sc3c(Cl)cccc3Cl)c12	inactive: -0.993%
NC(=O)c1ccsc1NC(=O)c1ccc(S(=O)(=O)N2CCCc3ccccc32)cc1	inactive: 8.23%
COc1cc(CNc2ccc3[nH]c(=O)[nH]c3c2)ccc1OCc1ccc(C)cc1	inconclusive: 43.6%
CCc1ccc(NC(=O)COc2ccc3c(c2)OCO3)cc1	inconclusive: 46.3%
CCC(O)C1CCN(Cc2cn(Cc3ccccc3)nc2-c2cc3ccccc3o2)CC1 (stereo not given)	inactive: 2.38%
CCOC(=O)[C@H]1[C@H]2COc3ccccc3[C@@H]2N2C(=O)c3cc(F)c(F)cc3NC(=O)[C@@]12C	inconclusive: 68%

Of the compounds above, 2 contain an aryl thioether with sulfur outside any ring.
SMILES	activation
O=C(CSc1nc2cccnc2n1Cc1ccccc1)NC1CCCCC1	inconclusive: 40.2%
Cc1noc2ncnc(Sc3c(Cl)cccc3Cl)c12	inactive: -0.993%

From PubChem BioAssay AID540275 (National Center for Advancing Translational Sciences (NCATS), 2011)
